{"sequences": {"note": "Sequences of proteins named here, by UniProt entry; tags and fusion partners are left off.", "UniProt P21730, whole entry": "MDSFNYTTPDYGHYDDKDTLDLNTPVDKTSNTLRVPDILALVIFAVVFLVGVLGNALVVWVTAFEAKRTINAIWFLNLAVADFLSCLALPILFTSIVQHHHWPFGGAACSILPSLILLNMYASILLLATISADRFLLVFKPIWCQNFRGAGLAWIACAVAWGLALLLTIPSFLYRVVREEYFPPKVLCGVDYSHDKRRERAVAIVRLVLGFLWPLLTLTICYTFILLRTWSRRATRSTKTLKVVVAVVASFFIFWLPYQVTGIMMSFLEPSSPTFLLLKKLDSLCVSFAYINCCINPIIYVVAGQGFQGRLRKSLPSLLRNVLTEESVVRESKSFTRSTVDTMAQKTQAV"}, "source": "patent US11608341B2", "about": "“Substituted tetrahydropyrazolo[3,4-d]pyrimidines and tetrahydropyrazolo[4,3-d]pyrimidines as C5A receptor modulators” (Idorsia Pharmaceuticals Ltd., priority 2018, dated 2023)", "biological_target": "C5AR1 (Homo sapiens, UniProt P21730)", "experiment": "In vitro assay: antagonism of C5a-induced beta-arrestin recruitment (PathHunter) in CHO-K1 C5AR1 beta-arrestin cell line", "conditions": "read-out: C5aR IC50, antagonistic activity, 1-10 nM C5a agonist, geometric mean where several measurements", "note": "Structures were worked out from names or drawings and are uncertain."}
{"smiles": "Cc1cccc(F)c1N1CCC(N2Cc3cn(C)nc3N(Cc3ccccc3C(F)(F)F)C2=O)CC1", "values": [{"measurement": "IC50", "result": 14, "unit": "nM"}]}
